2 molecules from patent US20070066798A1 can be followed below.

Chains of the proteins cited; added tags and fusions are not shown. Residues count along the entry.
UniProt Q03405, residues 23-299: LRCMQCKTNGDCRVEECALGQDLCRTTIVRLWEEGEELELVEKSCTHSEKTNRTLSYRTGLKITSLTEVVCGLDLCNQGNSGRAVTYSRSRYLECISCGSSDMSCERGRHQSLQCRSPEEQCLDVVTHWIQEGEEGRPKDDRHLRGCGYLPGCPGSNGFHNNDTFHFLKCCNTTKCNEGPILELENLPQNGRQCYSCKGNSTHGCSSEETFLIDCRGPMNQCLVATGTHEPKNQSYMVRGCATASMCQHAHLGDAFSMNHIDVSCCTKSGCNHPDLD

In assay [1] the target is recombinant affinity-purified human uPAR (rec-uPAR) expressed in CHO cells (human) (UniProt Q03405). The experiment in a line: sandwich ELISA, capture HU277, detection IIIF10. (In general: ELISA stands for enzyme-linked immunosorbent assay.)
Assay [2] has as its target uPAR (urokinase receptor) (UniProt Q03405). The experiment in a line: solid-phase binding assay with scFv culture supernatant; phages selected by specific binding of uPAR.

No constants are given. Whether binding was seen depends on the method and setting. Some binding calls cover weakened binding; strength is not graded here.

B1: monoclonal mouse antibody IIIF10 (antibody, V domains shown)
VH: QVQLQQSGPELVKPGALVKISCKASGYSFTSYDINWVKRRPGQGLEWIGWIFPGDGSTNYNEKFKDKATLTADKSSSTAYMQLNSLTSENSAVYFCARDGSMGGFDYWGQGTTVTVSS
VL: DVLMTQTPKFMSTSVGDRVSITCKASQNVRTTVAWYQEKPGQSPKALIYLASNRHTGVPDRFTGSGSGTDFTLTISNVQSEDLADYFCLQHWNYPYTFGGGTKLEIKR
In the case of B1, in assay [1], the binding entry is listed as “binds”.

B2: scFv IIIF10 (scFv, not shown: large carriers)
scFv: QVQLQQSGPELVKPGALVKISCKASGYSFTSYDINWVKRRPGQGLEWIGWIFPGDGSTNYNEKFKDKATLTADKSSSTAYMQLNSLTSENSAVYFCARDGSMGGFDYWGQGTTVTVSSDVLMTQTPKFMSTSVGDRVSITCKASQNVRTTVAWYQEKPGQSPKALIYLASNRHTGVPDRFTGSGSGTDFTLTISNVQSEDLADYFCLQHWNYPYTFGGGTKLEIKR
For the molecule B2, the binding result in assay [2] is listed as “binds”.
